The assay concerns Hut78 cells. As to the kind of experiment: CellTiterGlo cell viability, Hut78. In kind it is cell-based. Conditions: Homo sapiens, HuT78, 72 h. How it is done:
IC50 values were determined using […] software (Biosoft).
For orientation: In ATP-based viability assays light output follows the ATP content of the culture.

As a reminder, the IC50 is the point on the concentration scale where inhibition reaches its midpoint.

Consider `O=C(CCCCCCC(=O)Nc1ccccc1)NO` [SAHA, Vorinostat], for which the IC50 was found to be 97 nM.

The values above are taken from patent US20230190717A1, “P38 GAMMA INHIBITORS AND METHOD OF USE THEREOF” (City of Hope, priority 2017, published 2023).
